Results are given in words; binding and its absence hold for the method and conditions named. In cells and extracts the contact can be indirect. Some results given as binding are weak or reduced against the parent protein; the word gives no strength. Where a sequence is shown, tags or fusion partners need not be part of it.
T1: Cdc10-3Flag (S. cerevisiae) (UniProt P25342)
T1 sequence: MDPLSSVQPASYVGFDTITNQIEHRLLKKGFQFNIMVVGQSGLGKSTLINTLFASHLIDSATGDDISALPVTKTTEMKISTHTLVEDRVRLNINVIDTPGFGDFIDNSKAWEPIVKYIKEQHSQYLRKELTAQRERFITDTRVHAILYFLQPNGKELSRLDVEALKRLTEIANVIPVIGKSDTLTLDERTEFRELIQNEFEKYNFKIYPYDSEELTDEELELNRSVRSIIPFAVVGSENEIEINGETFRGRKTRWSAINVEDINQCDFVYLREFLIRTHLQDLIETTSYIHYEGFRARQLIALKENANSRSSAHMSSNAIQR

T2: Cdc10-3Flag (S. cerevisiae), P25342
T2 chain: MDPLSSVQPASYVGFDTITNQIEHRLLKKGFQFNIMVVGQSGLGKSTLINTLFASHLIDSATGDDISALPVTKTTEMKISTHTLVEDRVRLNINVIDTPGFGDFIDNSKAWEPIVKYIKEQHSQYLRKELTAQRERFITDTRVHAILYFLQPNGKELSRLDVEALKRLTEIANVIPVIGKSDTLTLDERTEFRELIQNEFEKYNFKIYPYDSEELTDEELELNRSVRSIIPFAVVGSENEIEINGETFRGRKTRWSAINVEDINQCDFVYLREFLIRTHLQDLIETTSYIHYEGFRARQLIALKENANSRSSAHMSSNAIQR

B1: MBP-Hof1-BFP-6His (natural protein, S. cerevisiae, UniProt Q05080 1-669, looked up)
chain: MSYSYEACFWDPNDNGVNILLGHISQGIRSCDSMILFFKQRSELEKDYARRLGAITGKLDKDIGTNMDYGKLNETFNVVLSVEKARAQSHSKQSEILFRQIYTDTKAFAANLQARYTTLSGKIERLRMDKFNKKKGCEVLQKKLQDAQIRFRDLQLNENNMIGAKRVEHNKRELLKWESNSQEYKVQLDVLKQEYKASQKFWIHEWAQLSCELQEMENARISFLQSKLQQFATSSMETYILEQTKMDMLTNHLNSFTAADEISTFSKENGTGRLKHKTSKGDMNSSANWAQMSSISTTSKKTESYMDNIRKLSSQLKETENKRKLASIDKYEKPLPSPEVTMATQFRNSTPVIRNETKVVANPTLSLRSSPVQLQSNVDDSVLRQKPDKPRPIVGEEQLKPDEDSKNPDEKGLMVHKRNQSLSSPSESSSSNPTDFSHIKKRQSMESMTTSVSSMANSIDDSQRFAKSWNSSNRKRKSMSHLQVPSSASSRSDDGGRTPNSAHNLNEDDYNTRRDTSTSTILFKPPVAVRGTSRGHTHRQSMIMQDSSNPIEDALYEMERIQSSSKPGTKTGNIMDERGVVRDRGITVTLPIVTSEGFPVIEYAKAMYPLIGNEAPGLANFHKGDYLLITEIVNKDWYKGEVYDNDRIDRNHRIGLIPYNFIQLLHQGL
notes: F-BAR protein Hof1, S. cerevisiae, residues 1-669 (mTagBFP fragment cloned into pBG2163); BFP amplified from pHPOM1-mTagBFP2; also called Hof1 tagged with blue fluorescent protein; pSP1950; source: E. coli BL21 (DE3) Rosetta, purified (Ni-NTA, amylose); not shown: MBP, N-terminal, kept; mTagBFP, C-terminal, kept
B2: Hof1-P1A-3HA (protein, UniProt Q05080 1-669)
chain: MSYSYEACFWDPNDNGVNILLGHISQGIRSCDSMILFFKQRSELEKDYARRLGAITGKLDKDIGTNMDYGKLNETFNVVLSVEKARAQSHSKQSEILFRQIYTDTKAFAANLQARYTTLSGKIERLRMDKFNKKKGCEVLQKKLQDAQIRFRDLQLNENNMIGAKRVEHNKRELLKWESNSQEYKVQLDVLKQEYKASQKFWIHEWAQLSCELQEMENARISFLQSKLQQFATSSMETYILEQTKMDMLTNHLNSFTAADEISTFSKENGTGRLKHKTSKGDMNSSANWAQMSSISTTSKKTESYMDNIRKLAAQLKETENKRKLASIDKYEKPLPAPEVAMATQFRNSAPVIRNETKVVANPTLALRAAPVQLQSNVDDSVLRQKPDKPRPIVGEEQLKPDEDSKNPDEKGLMVHKRNQALAAPSESSSSNPTDFSHIKKRQSMESMTTSVSSMANSIDDSQRFAKSWNSSNRKRKAMSHLQVPSSASSRSDDGGRTPNSAHNLNEDDYNTRRDTSTSTILFKPPVAVRGTSRGHTHRQSMIMQDSSNPIEDALYEMERIQASSKPGTKTGNIMDERGVVRDRGITVTLPIVTSEGFPVIEYAKAMYPLIGNEAPGLANFHKGDYLLITEIVNKDWYKGEVYDNDRIDRNHRIGLIPYNFIQLLHQGL
B3: Hof1-P4A-3HA (protein, UniProt Q05080 1-669)
chain: MSYSYEACFWDPNDNGVNILLGHISQGIRSCDSMILFFKQRSELEKDYARRLGAITGKLDKDIGTNMDYGKLNETFNVVLSVEKARAQSHSKQSEILFRQIYTDTKAFAANLQARYTTLSGKIERLRMDKFNKKKGCEVLQKKLQDAQIRFRDLQLNENNMIGAKRVEHNKRELLKWESNSQEYKVQLDVLKQEYKASQKFWIHEWAQLSCELQEMENARISFLQSKLQQFATSSMETYILEQTKMDMLTNHLNSFTAADEISTFSKENGTGRLKHKTSKGDMNSSANWAQMSSISTTSKKTESYMDNIRKLAAQLKETENKRKLASIDKYEKPLPAPEVAMATQFRNSAPVIRNETKVVANPTLALRSSPVQLQSNVDDSVLRQKPDKPRPIVGEEQLKPDEDSKNPDEKGLMVHKRNQALAAPSESSSSNPTDFSHIKKRQSMESMTTSVSSMANSIDDSQRFAKSWNSSNRKRKSMSHLQVPSSASSRSDDGGRTPNSAHNLNEDDYNTRRDTSTSTILFKPPVAVRGTSRGHTHRQSMIMQDSSNPIEDALYEMERIQASSKPGTKTGNIMDERGVVRDRGITVTLPIVTSEGFPVIEYAKAMYPLIGNEAPGLANFHKGDYLLITEIVNKDWYKGEVYDNDRIDRNHRIGLIPYNFIQLLHQGL
B4: Hof1-P1E-3HA (protein, UniProt Q05080 1-669)
chain: MSYSYEACFWDPNDNGVNILLGHISQGIRSCDSMILFFKQRSELEKDYARRLGAITGKLDKDIGTNMDYGKLNETFNVVLSVEKARAQSHSKQSEILFRQIYTDTKAFAANLQARYTTLSGKIERLRMDKFNKKKGCEVLQKKLQDAQIRFRDLQLNENNMIGAKRVEHNKRELLKWESNSQEYKVQLDVLKQEYKASQKFWIHEWAQLSCELQEMENARISFLQSKLQQFATSSMETYILEQTKMDMLTNHLNSFTAADEISTFSKENGTGRLKHKTSKGDMNSSANWAQMSSISTTSKKTESYMDNIRKLEEQLKETENKRKLASIDKYEKPLPEPEVEMATQFRNSEPVIRNETKVVANPTLELREEPVQLQSNVDDSVLRQKPDKPRPIVGEEQLKPDEDSKNPDEKGLMVHKRNQELEEPSESSSSNPTDFSHIKKRQSMESMTTSVSSMANSIDDSQRFAKSWNSSNRKRKEMSHLQVPSSASSRSDDGGRTPNSAHNLNEDDYNTRRDTSTSTILFKPPVAVRGTSRGHTHRQSMIMQDSSNPIEDALYEMERIQESSKPGTKTGNIMDERGVVRDRGITVTLPIVTSEGFPVIEYAKAMYPLIGNEAPGLANFHKGDYLLITEIVNKDWYKGEVYDNDRIDRNHRIGLIPYNFIQLLHQGL
B5: Hof1-P4E-3HA (protein, UniProt Q05080 1-669)
chain: MSYSYEACFWDPNDNGVNILLGHISQGIRSCDSMILFFKQRSELEKDYARRLGAITGKLDKDIGTNMDYGKLNETFNVVLSVEKARAQSHSKQSEILFRQIYTDTKAFAANLQARYTTLSGKIERLRMDKFNKKKGCEVLQKKLQDAQIRFRDLQLNENNMIGAKRVEHNKRELLKWESNSQEYKVQLDVLKQEYKASQKFWIHEWAQLSCELQEMENARISFLQSKLQQFATSSMETYILEQTKMDMLTNHLNSFTAADEISTFSKENGTGRLKHKTSKGDMNSSANWAQMSSISTTSKKTESYMDNIRKLEEQLKETENKRKLASIDKYEKPLPEPEVEMATQFRNSEPVIRNETKVVANPTLELRSSPVQLQSNVDDSVLRQKPDKPRPIVGEEQLKPDEDSKNPDEKGLMVHKRNQELEEPSESSSSNPTDFSHIKKRQSMESMTTSVSSMANSIDDSQRFAKSWNSSNRKRKSMSHLQVPSSASSRSDDGGRTPNSAHNLNEDDYNTRRDTSTSTILFKPPVAVRGTSRGHTHRQSMIMQDSSNPIEDALYEMERIQESSKPGTKTGNIMDERGVVRDRGITVTLPIVTSEGFPVIEYAKAMYPLIGNEAPGLANFHKGDYLLITEIVNKDWYKGEVYDNDRIDRNHRIGLIPYNFIQLLHQGL
B6: Cdc11, P32458 1-415 (protein)
chain: MSGIIDASSALRKRKHLKRGITFTVMIVGQSGSGRSTFINTLCGQQVVDTSTTILLPTDTSTEIDLQLREETVELEDDEGVKIQLNIIDTPGFGDSLDNSPSFEIISDYIRHQYDEILLEESRVRRNPRFKDGRVHCCLYLINPTGHGLKEIDVEFIRQLGSLVNIIPVISKSDSLTRDELKLNKKLIMEDIDRWNLPIYNFPFDEDEISDEDYETNMYLRTLLPFAIIGSNEVYEMGGDVGTIRGRKYPWGILDVEDSSISDFVILRNALLISHLHDLKNYTHEILYERYRTEALSGESVAAESIRPNLTKLNGSSSSSTTTRRNTNPFKQSNNINNDVLNPASDMHGQSTGENNETYMTREEQIRLEEERLKAFEERVQQELLLKRQELLQREKELREIEARLEKEAKIKQEE

These binders were tested against T1, Cdc10-3Flag (S. cerevisiae) (assay: co-IP; anti-Flag M2 on protein G dynabeads; extracts of nocodazole-arrested yeast cells in TBSN buffer (100 mM NaCl, 25 mM Tris-Cl pH 7.4, 2 mM EDTA, 0.1% NP-40, 1 mM DTT), 1 h at 4 °C; eluted with 3xFlag peptide; blots with anti-HA, anti-Flag and anti-Cdc11). Details: not given.
For B1, the binding was “binds”. With B2 the binding was “binds”. For B3, the binding was “binds”. B4 was tested, and the binding was “binds”. B5 was tested, and the binding was “binds”.

Molecular target: T2, Cdc10-3Flag (S. cerevisiae), P25342
Assay: as above
Details: remark: other sources report otherwise
For B6, the binding was “binds”.

— paper PMC11035697, “Phosphorylation of the F-BAR protein Hof1 drives septin ring splitting in budding yeast” (Nature Communications, 2024)
